Data: publication PMC3646893, “Solution Structure and Rpn1 Interaction of the UBL Domain of Human RNA Polymerase II C-Terminal Domain Phosphatase” (PLoS ONE, 2013)
Results are given in words; binding and its absence hold for the method and conditions named. For some assays here: Binding seen in cells or lysates may run through a third protein. Some entries that bind do so weakly or less than the wild type. Sequences can lack the tags named with a protein.

Chains of the proteins cited; added tags and fusions are not shown. Lines headed by an entry give the natural chain unless they say otherwise; changes in a name come on top.
UniProt Q13200: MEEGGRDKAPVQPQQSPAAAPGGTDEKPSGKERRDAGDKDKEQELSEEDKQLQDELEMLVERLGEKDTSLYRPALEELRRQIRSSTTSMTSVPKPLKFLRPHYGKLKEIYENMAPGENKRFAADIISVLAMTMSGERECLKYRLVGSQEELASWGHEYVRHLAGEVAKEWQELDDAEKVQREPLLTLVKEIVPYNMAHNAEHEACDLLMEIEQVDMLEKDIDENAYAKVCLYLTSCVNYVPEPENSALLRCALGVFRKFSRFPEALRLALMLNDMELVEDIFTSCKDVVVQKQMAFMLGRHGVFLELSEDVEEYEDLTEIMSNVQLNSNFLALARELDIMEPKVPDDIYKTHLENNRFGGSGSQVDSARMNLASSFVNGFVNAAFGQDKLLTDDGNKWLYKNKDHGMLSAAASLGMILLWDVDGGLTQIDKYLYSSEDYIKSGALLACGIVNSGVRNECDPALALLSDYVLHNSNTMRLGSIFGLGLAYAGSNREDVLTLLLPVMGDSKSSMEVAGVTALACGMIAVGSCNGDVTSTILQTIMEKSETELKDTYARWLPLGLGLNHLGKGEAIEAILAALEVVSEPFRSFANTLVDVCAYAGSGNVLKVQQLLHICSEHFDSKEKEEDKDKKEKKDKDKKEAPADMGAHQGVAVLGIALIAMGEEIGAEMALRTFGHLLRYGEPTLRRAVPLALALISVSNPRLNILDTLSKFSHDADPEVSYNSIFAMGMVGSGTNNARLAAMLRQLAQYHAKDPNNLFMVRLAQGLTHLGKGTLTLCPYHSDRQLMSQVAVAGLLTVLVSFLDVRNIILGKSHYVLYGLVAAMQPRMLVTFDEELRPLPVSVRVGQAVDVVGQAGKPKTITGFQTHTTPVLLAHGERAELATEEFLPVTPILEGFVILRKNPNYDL

T1: GST-fused UBL domain of hUBLCP1 (UBLCP1 1-81) (human) (UniProt Q8WVY7)
T1 sequence: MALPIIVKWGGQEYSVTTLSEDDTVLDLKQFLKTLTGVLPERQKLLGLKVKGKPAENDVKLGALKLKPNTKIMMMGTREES


What was measured:
[1] = target: T1, GST-fused UBL domain of hUBLCP1 (UBLCP1 1-81) (human); assay: pull-down; GST-fused UBLCP1 1-81 on glutathione-Sepharose 4B; TRX-His6-fused Rpn1 fragments loaded, 1 h at 25°C; eluted with 10 mM reduced glutathione; SDS-PAGE; both purified
[2] = target: FLAG-tagged Rpn1 of the regulatory particle of the 26 S proteasome, from pYR-FLAG-RPN1 (human) (UniProt Q13200); assay: co-IP; lysate of transfected HeLa Tet-Off-derived (EBNA-1) cells; anti-FLAG resin (FLAG-RPN1 precipitated), 0.1% NP-40, 4 h at 4°C; immunoblot with HA and FLAG antibodies

| binding [1] | binding [2] | Molecule |
| --- | --- | --- |
| no binding |  | TRX-His6-fused Rpn1 regulatory subunit 2 (Rpn1 640-772) (from UniProt Q13200 640-772) (domain or fragment) |
|  | binds | HA-tagged human ubiquitin-like domain-containing C-terminal domain phosphatase (hUBLCP1), from pYR-HA-UBLCP1 (protein, UniProt Q8WVY7 1-318) MALPIIVKWGGQEYSVTTLSEDDTVLDLKQFLKTLTGVLPERQKLLGLKVKGKPAENDVKLGALKLKPNTKIMMMGTREESLEDVLGPPPDNDDVVNDFDIEDEVVEVENREENLLKISRRVKEYKVEILNPPREGKKLLVLDVDYTLFDHRSCAETGVELMRPYLHEFLTSAYEDYDIVIWSATNMKWIEAKMKELGVSTNANYKITFMLDSAAMITVHTPRRGLIDVKPLGVIWGKFSEFYSKKNTIMFDDIGRNFLMNPQNGLKIRPFMKAHLNRDKDKELLKLTQYLKEIAKLDDFLDLNHKYWERYLSKKQGQ |
